The whole screen tested about 360,000 compounds, of which about 7,500 (2.1%) were called active. The inconclusive results got no clear call from the source; some entries with a clear call stand among them for comparison. Calls follow the shape of the dose curve; as a rule, active = well fitted inhibition curve with a large enough effect; inconclusive = small, poorly fitted or top-dose-only effect, or effect the other way; inactive = flat fitted curve, though single readings scatter. A potency beside an inconclusive call is a rough fit, not a confirmed value.
assay: Nrf2 qHTS screen for inhibitors; details: A549 ARE-Fluc reporter, luciferase luminescence, 18-24 h; series mostly up to 46 µM; also: nearly all actives have a fitted effect of over 60% in size
How it was run: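 Cells were seeded and rested 2 h, then exposed to compounds for 18-24 h. CellTiter-Fluor was read first as a viability measure. BugLite was added 15 min before the final luminescent read of ARE-luciferase activity in A549 cells.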
Potency is read from the fitted curve at half-maximal effect.

Compound	Potency
CC(C)OC(=O)Nc1ccc2c(c1)N(C(=O)CCN1CCN(CCO)CC1)c1ccccc1CC2	inactive
Cc1ccc(-n2ncc(C(=O)N3CCN(C(=O)c4ccco4)CC3)c2C2CCN(C(=O)OC(C)(C)C)CC2)cc1	inconclusive: 16.4 µM [activator, single point]
COC(=O)c1nnn(-c2ccc(Cl)cc2)c1C(=O)OC	inconclusive: 2.31 µM [activator, full curve, poor fit]
CNC(=O)/C(C#N)=C/c1ccc(-c2ccc(Cl)cc2)o1	inconclusive: 13 µM [activator, partial curve]
CCN(CC)S(=O)(=O)c1cc(NC(=O)C(=O)c2c(-c3ccccc3)cc3ccccn23)ccc1C	active: 5.17 µM
Cc1sc2ncnc(N3CCC(C(=O)NNC(=O)COc4ccccc4F)CC3)c2c1C	inconclusive: 10.3 µM [falling, partial curve, poor fit]
O=C(N/N=C/C(Br)=C/c1ccccc1)NC1CCCCC1	inactive
O=c1[nH]cnc2sc3c(c12)CCCC3	inconclusive: 4.11 µM [falling, full curve]
COCCCNC(=O)C(C#N)c1nc2ccccc2nc1N1CCN(Cc2ccccc2)CC1 (centres undefined)	inconclusive: 4.61 µM [falling, partial curve, poor fit]
CCOC(=O)c1[nH]c2ccc(OC)cc2c1NC(C)=O	inactive
CN1c2ccccc2C(C)(C)C12C=Nc1c(ccc3ccccc13)O2 (centres undefined)	inactive
Cc1c(CCC(=O)NCC(=O)O)c(=O)oc2cc3occ(-c4ccccc4)c3cc12	inconclusive: 16.4 µM [falling, partial curve, poor fit]
CCN(CC)C(=O)C1CCN(c2cc(C)nc3c(-c4ccc(OC)c(OC)c4)c(C)nn23)CC1	inactive
Cc1ccc(S(=O)(=O)N(C)C)cc1-n1c(SCC(=O)Nc2ccc(F)cc2Cl)nc2ccccc2c1=O	inconclusive: 1.46 µM [falling, partial curve, poor fit]
O=C1c2cnc3nc(SCc4ccc(Cl)cc4)nn3c2CC2c3ccccc3CCN12 (centres undefined)	inconclusive: 32.6 µM [falling, single point]
COc1ccc(NC(=O)COc2cccc3c2CCNC3=O)cc1	inconclusive: 2.06 µM [falling, full curve, poor fit]
Cn1c(C(=O)N2CCCC(C(=O)N3CCN(c4ccccc4)CC3)C2)cc2sccc21 (centres undefined)	inactive
CCc1ccc(NC(=O)CSc2cn(CC(=O)N3CCOCC3)c3ccccc23)cc1	inconclusive: 2.31 µM [activator, full curve]
COC(=O)C1=C(N)Oc2cc(C)n(CC3CCCO3)c(=O)c2C1c1ccc(Cl)c(Cl)c1 (centres undefined)	active: 20.6 µM
O=C(c1ccccc1NS(=O)(=O)c1ccc([N+](=O)[O-])cc1[N+](=O)[O-])N1O[C@@H]2C=C[C@H]1C2	inactive
COc1ccc(-n2nnnc2S(=O)(=O)Cc2ccc(C(=O)O)cc2)cc1	inconclusive: 14.6 µM [falling, partial curve, poor fit]
COc1ccc(CCNS(=O)(=O)c2cc3c4c(c2)C(C)C(=O)N4CCC3)cc1OC (centres undefined)	inconclusive: 29.1 µM [falling, single point]

Shown field by field: 2 of the compounds above
CCN(CC)S(=O)(=O)c1cc(NC(=O)C(=O)c2c(-c3ccccc3)cc3ccccn23)ccc1C
  Potency: active: 5.17 µM
Cc1sc2ncnc(N3CCC(C(=O)NNC(=O)COc4ccccc4F)CC3)c2c1C
  Potency: inconclusive: 10.3 µM [falling, partial curve, poor fit]

(listing goes on)

Compound	Potency
O=C(/C(C=Nc1ccc(F)cc1)=C(/O)c1ccco1)C(F)(F)F	inconclusive: 6.51 µM [activator, full curve, poor fit]
c1coc(CNc2ncnc3c2oc2ccccc23)c1	inconclusive: 18.4 µM [falling, single point]
O=C(CNC(=O)c1ccc(Cl)cc1Cl)OC(C(=O)Nc1cc(C(F)(F)F)ccc1Cl)c1ccccc1 (centres undefined)	inactive
COc1ccc(-c2cc(C(F)(F)F)n3nc(C(=O)Nc4sc5c(c4C(=O)OC(C)C)CCCC5)cc3n2)cc1OC	inconclusive: 3.66 µM [activator, full curve, poor fit]
N#CCSc1nc2scc(-c3cccs3)c2c(=O)n1CCc1ccccc1	inconclusive: 8.2 µM [falling, partial curve, poor fit]
Cc1cccc2cc(-c3nc4ccc(C(=O)O)cc4[nH]3)c(=O)oc12	inconclusive: 10.3 µM [activator, partial curve]
COc1cc(/C=N/NC(=O)COc2cccc(F)c2)ccc1OS(=O)(=O)c1ccc(C)cc1	inconclusive: 25.9 µM [falling, single point]
FC(F)(F)C(Oc1nc(Nc2ccc(Cl)cc2)nc(N2CCOCC2)n1)C(F)(F)F	inconclusive: 23.1 µM [falling, single point]
CC(=O)c1ccc(NC(=S)NNC(=O)NC2CCCCC2)cc1	inconclusive: 20.6 µM [activator, single point]
Cc1ccnc(NC(=S)NC(=O)c2ccco2)c1	inconclusive: 4.61 µM [activator, partial curve]
Cc1nn(C)c(C(=O)NCc2ccc(Cl)cc2)c1Cl	inconclusive: 6.51 µM [falling, partial curve]
CCOC(=O)c1ccc(NC(=O)Cn2cc(C(=O)c3cccs3)c3ccccc32)cc1	inconclusive: 32.6 µM [falling, single point]
CN(C)S(=O)(=O)c1ccc(Cl)c(C(=O)Nc2cccc([N+](=O)[O-])c2)c1	active: 9.2 µM
Cc1cc2c(cc(C(=O)OC(C(=O)NC3CCCCC3)C(C)C)n2C)o1 (centres undefined)	active: 20.6 µM
Cc1ccc(Nc2nc3c(S(=O)(=O)c4ccccc4)nnn3c3ccc(Cl)cc23)c(C)c1	inconclusive: 6.51 µM [activator, single point]
COc1cc2[nH]c(=S)nc(NCCc3ccc(C)cc3)c2cc1OC	inconclusive: 23.1 µM [falling, single point]
Cc1cc([N+](=O)[O-])cc2c1NC(=O)C2(O)N1CCCCCC1 (centres undefined)	inconclusive: 29.1 µM [activator, partial curve, poor fit]
COc1cccc(C2=NOC(C(=O)Nc3ccc(C(C)=O)cc3)C2)c1 (centres undefined)	inconclusive: 5.8 µM [activator, partial curve]
Cc1nc2ccn(Cc3cccs3)c(=O)c2cc1C(=O)NCc1ccc(Cl)cc1	inconclusive: 0.146 µM [falling, full curve, poor fit]
O=Cc1c(Cl)[nH]c(=O)n1-c1ccccc1	inconclusive: 14.6 µM [activator, single point]
O=C(COC(=O)c1n[nH]c2ccccc12)NCCc1ccccc1	inconclusive: 20.6 µM [activator, single point]
COc1ccc(CCNC(=O)c2cc(=O)c3c(C)cc(C)cc3o2)cc1OC	inconclusive: 20.6 µM [falling, partial curve, poor fit]

Arranged by number of heavy atoms (low to high): part of the list above
Compound	Potency
Cc1nn(C)c(C(=O)NCc2ccc(Cl)cc2)c1Cl	inconclusive: 6.51 µM [falling, partial curve]
CN(C)S(=O)(=O)c1ccc(Cl)c(C(=O)Nc2cccc([N+](=O)[O-])c2)c1	active: 9.2 µM
FC(F)(F)C(Oc1nc(Nc2ccc(Cl)cc2)nc(N2CCOCC2)n1)C(F)(F)F	inconclusive: 23.1 µM [falling, single point]
Cn1c(C(=O)N2CCCC(C(=O)N3CCN(c4ccccc4)CC3)C2)cc2sccc21 (centres undefined)	inactive

More entries

Compound	Potency
Cc1cnc(NC(=O)c2ccc3c(c2)OCCO3)s1	inconclusive: 2.31 µM [falling, full curve, poor fit]
CCOC(=O)c1c(NC(=O)Cn2cnc3sc(C)c(-c4ccccc4)c3c2=O)sc(C)c1C	inconclusive: 4.61 µM [activator, full curve, poor fit]
Cc1cccc(C(=O)Oc2c(Br)cc(Br)cc2/C=N/NC(=O)c2ccncc2)c1	inconclusive: 25.9 µM [activator, single point]
COc1ccc(C2CC(c3ccccc3Br)=NN2c2ccc(S(N)(=O)=O)cc2)cc1 (centres undefined)	inconclusive: 23.1 µM [falling, single point]
CC(C)NC(=O)N(C)C[C@H]1Oc2ccc(NC(=O)Cc3ccccc3)cc2C(=O)N([C@H](C)CO)C[C@@H]1C	inactive
O=c1c2c(nc3c(-c4ccc(Cl)cc4)c[nH]n13)CCC2	inconclusive: 29.1 µM [falling, single point]
O=C1CSC(c2ccccn2)N1c1ccc2ccccc2c1 (centres undefined)	inconclusive: 7.31 µM [falling, partial curve, poor fit]
COc1ccc(S(=O)(=O)Cc2ccc(C(=O)N3CCN(c4cc(Cl)ccc4C)CC3)o2)cc1	inconclusive: 29.1 µM [falling, single point]
Cc1ccc(NC(=O)C2CCCN(c3ncccn3)C2)cc1C (centres undefined)	inconclusive: 25.9 µM [activator, partial curve]
COc1ccccc1NC(=O)c1cc2c(n(-c3ccc(C)cc3)c1=O)CC(C)(C)CC2=O	inactive
COc1cccc(C2C(C#N)=C(N)N(N(C)C)C3=C2C(=O)CC(C)(C)C3)c1 (centres undefined)	inactive
Clc1cc(Br)ccc1OCCCNCc1ccccc1	inactive
CNC(=O)c1ccc(-c2sc3nc(N4CCOCC4)c4c(c3c2N)CC(C)(C)OC4)o1	inactive
O=C(Cn1nnc(-c2ccccc2Cl)n1)N1CCCCC1	inconclusive: 3.26 µM [activator, full curve]
CN1CC(=O)N(CC(=O)Nc2ccc(OCc3ccccc3)cc2)C1=O	inconclusive: 2.06 µM [activator, partial curve, poor fit]
Cc1ccc(NC(=O)c2sc3ncn(CC(=O)N4CCN(c5ccccn5)CC4)c(=O)c3c2C)cc1Cl	inconclusive: 16.4 µM [falling, single point]
COC(=O)c1c(NC(=O)CN2CCN(C(=O)c3ccco3)CC2)c2cc(C)ccc2n1C	inactive
CC(C)NC(=O)N(C)C[C@H]1Oc2ccc(NS(=O)(=O)c3ccc(Cl)cc3)cc2CC(=O)N([C@@H](C)CO)C[C@@H]1C	inactive
CC1CCCC(C)N1C(=O)c1cc(-c2ccc3c(c2)OCO3)on1 (centres undefined)	inconclusive: 1.46 µM [activator, full curve]
Cc1cc2c(s1)c1cnn(Cc3ccc(-n4cncn4)cc3)c(=O)c1n2C	inactive
